The name of at least one read-out is uncertain.
Tested on: hCMEC/D3 cell line
Test: Transport of paracetamol across in vitro blood-brain barrier model (transwell system, HPLC quantification)
Type: in vitro ADME
Details: confluent hCMEC/D3 cells, 14 days of culture in transwell

Substance: Lucifer yellow
- Permeability of the mimicked barrier to the marker: does not manage to cross

— patent publication US11617730B2, “Pharmaceutical formulation for administering paracetamol by buccal/gingival route” (Unither Pharmaceuticals, priority 2017, dated 2023)
